Source: PubChem BioAssay AID2417 (National Center for Advancing Translational Sciences (NCATS), 2010)
About 4,300 (3.1%) of roughly 140,000 compounds were called active. This list was built around the results that the source calls inconclusive (neither active nor inactive); the mix of calls is not that of the screen.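 Rule for the calls: active = readout at or below -70, meaning at least 70% loss of cells showing the perinucleolar compartment, a nuclear body marking cancer cells; inconclusive = readout between -30 and a set limit; inactive = the rest.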

Assay: High Content Assay for Compounds that inhibit the Assembly of the Perinucleolar Compartment;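 note: plate controls were DMSO wells for no effect and camptothecin positive control wells for full effect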
Settings: PC3M PTB-GFP, PNC prevalence imaging, 16 h; at 10 µM; active compounds read low
How it was run: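 Compounds are pinned in duplicate onto adhered PC3M cells stably expressing GFP-tagged PTB and incubated 16 h at 37 C. Cells are then fixed, nuclei stained with Hoechst, and PNC-positive cells counted.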

Row | SMILES | activity change (PNC), negative = inhibition
1 | COc1ccc(S(=O)(=O)N(CCCN2CCOCC2)Cc2cccc3ccccc23)cc1 | inconclusive: -65.8%
2 | COc1ccc(Nc2nc(-c3cccs3)cs2)cc1 | inactive: -6.55%
3 | O=C(CON=C1c2ccccc2-c2ccccc21)NC12CC3CC(CC(C3)C1)C2 | inactive: 11.9%
4 | O=C(NNC(=S)Nc1ccc(Br)cc1Cl)c1ccncc1 | inconclusive: -36%
5 | Cc1cc(S(=O)(=O)N2CCN(c3ccccc3C)CC2)ccc1F | inconclusive: -50.1%
6 | CCCC(C)NC(=O)C1CCN(S(=O)(=O)c2ccccc2)CC1 (centres undefined) | inconclusive: -41.1%
7 | Cc1ccc(NC(=O)CN2C(=O)S/C(=C\c3cc(C)n(C)c3C)C2=O)cc1 | inactive: 70.5%
8 | Cc1cc(C(=O)Nc2cccc(C(=O)O)c2)c(C)o1 | inactive: -17.8%
9 | Cc1ccc(-n2nnnc2-c2cnc(N3CCCC3)nc2C(F)(F)F)cc1 | inconclusive: -31.9%
10 | CC(=O)NCCNc1ccc([N+](=O)[O-])cn1 | inactive: 30.4%
11 | Cc1ccc(Cc2cnc(N3C(=N)SC(c4ccccc4)C3=O)s2)cc1 (centres undefined) | inconclusive: -38.4%
12 | CCOC(=O)c1c(C)oc2ccc(OC(=O)N3CCOCC3)cc12 | inconclusive: -32.1%
13 | Cc1ccc(-n2c(C)cc(C(=O)COC(=O)C3=NNC(=O)CC3)c2C)cc1 | inconclusive: -39.6%
14 | Cc1cc(NS(=O)(=O)c2ccc(NC(=O)C(C(C)C)N3C(=O)c4ccccc4C3=O)cc2)nc(C)n1 (centres undefined) | active: -88.1%
15 | CC12C(=O)N(c3ccccc3C(=O)O)C(=O)C1C1C=CC2C1 (centres undefined) | inconclusive: -73.8%
16 | CC1CCCN(S(=O)(=O)c2ccc(C(=O)Nc3ccccc3-c3nc4ccccc4[nH]3)cc2)C1 (centres undefined) | inconclusive: -73.9%
17 | COc1cc(C(=O)Oc2ccccc2/C=N/NC(=O)c2ccc(Cl)cc2Cl)cc(OC)c1OC | inconclusive: -32.3%
18 | COc1ccc(C(=O)O/N=C/c2c(C(F)(F)F)nn(C)c2SCc2ccccc2Cl)cc1 | inconclusive: -36.8%
19 | Cc1nc(N/C(N)=N/S(=O)(=O)c2ccc([N+](=O)[O-])cc2)nc2ccccc12 | inactive: 65.8%
20 | Cc1cc(C)nc(NS(=O)(=O)c2ccc(N/C=C\C(=O)c3ccc(Cl)cc3)cc2)n1 | inactive: 2.53%
21 | COCc1cc(/C=N\NC(=O)Cc2ccc(OC)cc2)ccc1OC | inconclusive: -67.5%
22 | CCOc1ccccc1-n1nnnc1SCc1nc2ccccc2s1 | inactive: 27.2%
23 | O=C(NCCn1ccc2ccccc21)C1CCCCC1 | inconclusive: -35%
24 | CC1CCN(C(=O)Cn2nc(C(F)(F)F)c3c2CCCC3)CC1 | inconclusive: -54%

Individual results from the entries so far:
activity change (PNC), negative = inhibition, `CCOC(=O)c1c(C)oc2ccc(OC(=O)N3CCOCC3)cc12` reads inconclusive: -32.1%
activity change (PNC), negative = inhibition, `CC1CCN(C(=O)Cn2nc(C(F)(F)F)c3c2CCCC3)CC1` reads inconclusive: -54%
